In publication PMC12381156:
Results are given in words; binding and its absence hold for the method and conditions named. Sequences can lack the tags named with a protein.

Biological target: T1, G protein-coupled bile acid receptor 1 (GPBAR1), full-length human, with N-terminal FLAG and BRIL (human), Q8TDU6
T1 chain: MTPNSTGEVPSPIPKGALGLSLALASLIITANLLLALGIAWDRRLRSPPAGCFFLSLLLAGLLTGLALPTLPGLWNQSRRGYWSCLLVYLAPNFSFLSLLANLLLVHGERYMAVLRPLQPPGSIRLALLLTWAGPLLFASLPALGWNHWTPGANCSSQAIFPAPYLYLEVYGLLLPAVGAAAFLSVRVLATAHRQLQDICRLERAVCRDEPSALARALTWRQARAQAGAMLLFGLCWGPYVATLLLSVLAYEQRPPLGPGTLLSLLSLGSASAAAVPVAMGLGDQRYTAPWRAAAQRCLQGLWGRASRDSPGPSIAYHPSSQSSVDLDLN
Experiment: mass photometry; samples in 20 mM HEPES, 150 mM NaCl, 0.02%/0.002% LMNG/CHS, drop-diluted in PBS to 10 nM (apo-GPBAR1) and 30 nM (GPBAR1/Gs complex with P395 and Nb35); room temperature (18 °C); both purified
Details: remark: other sources report otherwise

B1: G protein-coupled bile acid receptor 1 (GPBAR1), full-length human, with N-terminal FLAG and BRIL, Q8TDU6 1-330 (receptor)
chain: MTPNSTGEVPSPIPKGALGLSLALASLIITANLLLALGIAWDRRLRSPPAGCFFLSLLLAGLLTGLALPTLPGLWNQSRRGYWSCLLVYLAPNFSFLSLLANLLLVHGERYMAVLRPLQPPGSIRLALLLTWAGPLLFASLPALGWNHWTPGANCSSQAIFPAPYLYLEVYGLLLPAVGAAAFLSVRVLATAHRQLQDICRLERAVCRDEPSALARALTWRQARAQAGAMLLFGLCWGPYVATLLLSVLAYEQRPPLGPGTLLSLLSLGSASAAAVPVAMGLGDQRYTAPWRAAAQRCLQGLWGRASRDSPGPSIAYHPSSQSSVDLDLN
- binding: no binding (tested: 10 nM)
